± gives the standard deviation of the averaged measurements. Values are relative to the signal before dosing, not to a vehicle control; the signal also falls without drug.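 Fibroblast labels denote human fibroblasts, mainly primary ones from uterus (C12385, HUF), lung (H6013), bone (Hs27A), adrenal (HADF) and skin (WS1), plus mammary HMF and breast cancer-associated Hs343T. Cancer cells are basal-like or mesenchymal-like triple-negative breast cancer lines. A hit is a response shift exceeding 3x replicate standard deviation. The tissue of the other fibroblasts is not given here.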
Test system: MDAMB468
Assay: relative JC-1 red fluorescence (viability) vs pre-drug, coculture with fibroblast (fraction); higher = more viable cancer cells
Procedure: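 JC-1 labelled TNBC cells cocultured 1:1 (1,500 cells each) with CellTrace Violet stained primary or stromal fibroblasts in 384-well plates in FluoroBrite medium, treated with one of 42 anticancer drugs at 0.1, 1, 10 or 100 uM. JC-1 red fluorescence (mitochondrial integrity in cancer cells only) was read by plate reader every 8 h for 72 h. Values are normalised to each well's pre-drug value. The stock of one drug was tenfold lower, so its dose labels may be too high.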

O=c1[nH]cc(F)c(=O)[nH]1 [Fluorouracil]
relative JC-1 red fluorescence
Conditions	8 h	16 h	24 h	32 h	40 h	48 h	56 h	64 h	72 h
0.1 µM, coculture fibroblast: C12385	0.90361 ± 0.00033	0.8315 ± 0.0033	0.813 ± 0.015	0.778 ± 0.021	0.752 ± 0.0097	0.769 ± 0.0089	0.734 ± 0.011	0.713 ± 0.025	0.719 ± 0.019
0.1 µM, coculture fibroblast: H6013	0.8994 ± 0.0029	0.821 ± 0.011	0.806 ± 0.022	0.801 ± 0.025	0.778 ± 0.037	0.786 ± 0.037	0.75 ± 0.037	0.735 ± 0.039	0.682 ± 0.038
0.1 µM, coculture fibroblast: H6019	0.8344 ± 0.0021	0.7923 ± 0.0027	0.783 ± 0.015	0.726 ± 0.028	0.689 ± 0.032	0.671 ± 0.031	0.62 ± 0.034	0.59 ± 0.044	0.561 ± 0.057
0.1 µM, coculture fibroblast: H6076	0.9503 ± 0.0018	0.912 ± 0.022	0.879 ± 0.023	0.892 ± 0.021	0.817 ± 0.014	0.816 ± 0.02	0.78 ± 0.017	0.769 ± 0.023	0.824 ± 0.028
0.1 µM, coculture fibroblast: H6231	0.8297 ± 0.0023	0.9902 ± 0.0064	0.896 ± 0.011	0.836 ± 0.028	0.791 ± 0.023	0.763 ± 0.021	0.711 ± 0.018	0.674 ± 0.017	0.646 ± 0.017
0.1 µM, coculture fibroblast: HADF	0.901 ± 0.029	0.82 ± 0.0098	0.7908 ± 0.0067	0.77976 ± 0.00061	0.7322 ± 0.0016	0.721 ± 0.0089	0.6784 ± 0.0029	0.656 ± 0.0074	0.618 ± 0.012
0.1 µM, coculture fibroblast: HCFa	0.88594 ± 2.1e-06	0.82 ± 0.013	0.791 ± 0.011	0.7541 ± 0.0074	0.6909 ± 0.0054	0.6776 ± 0.0037	0.617 ± 0.008	0.575 ± 0.0055	0.5315 ± 0.0042
0.1 µM, coculture fibroblast: HCPF	0.893 ± 0.042	0.916 ± 0.12	0.92 ± 0.061	0.898 ± 0.065	0.847 ± 0.066	0.831 ± 0.067	0.783 ± 0.075	0.775 ± 0.082	0.748 ± 0.094
0.1 µM, coculture fibroblast: HHSteC	0.94 ± 0.022	0.847 ± 0.027	0.81 ± 0.019	0.764 ± 0.0087	0.71 ± 0.018	0.691 ± 0.036	0.615 ± 0.059	0.588 ± 0.064	0.542 ± 0.073
0.1 µM, coculture fibroblast: HMF	0.8792 ± 0.0037	0.964 ± 0.035	0.90515 ± 0.00032	0.905 ± 0.029	0.844 ± 0.025	0.83 ± 0.03	0.793 ± 0.043	0.782 ± 0.051	0.777 ± 0.047
0.1 µM, coculture fibroblast: HPFa	0.93 ± 0.013	0.9068 ± 0.0085	0.838 ± 0.022	0.789 ± 0.028	0.741 ± 0.032	0.729 ± 0.051	0.659 ± 0.05	0.624 ± 0.052	0.549 ± 0.044
0.1 µM, coculture fibroblast: HUF	0.9119 ± 0.0054	0.8237 ± 0.0046	0.751 ± 0.00071	0.68 ± 0.0081	0.626 ± 0.0095	0.5931 ± 0.0038	0.549 ± 0.0078	0.514 ± 0.011	0.49 ± 0.0063
0.1 µM, coculture fibroblast: Hs5	0.743 ± 0.048	0.952 ± 0.037	0.875 ± 0.059	0.857 ± 0.073	0.779 ± 0.078	0.743 ± 0.087	0.703 ± 0.095	0.672 ± 0.1	0.688 ± 0.1
0.1 µM, coculture fibroblast: Hs27A	0.85863 ± 0.00044	0.7805 ± 0.0021	0.756 ± 0.0078	0.762 ± 0.022	0.711 ± 0.032	0.711 ± 0.038	0.672 ± 0.043	0.646 ± 0.049	0.603 ± 0.051
0.1 µM, coculture fibroblast: Hs343T	0.8959 ± 0.0013	0.9531 ± 0.0038	0.903 ± 0.026	0.875 ± 0.024	0.803 ± 0.028	0.787 ± 0.027	0.729 ± 0.024	0.712 ± 0.026	0.691 ± 0.013
0.1 µM, coculture fibroblast: WS1	0.8834 ± 0.0012	0.773 ± 0.022	0.736 ± 0.023	0.663 ± 0.019	0.615 ± 0.024	0.588 ± 0.027	0.561 ± 0.015	0.535 ± 0.011	0.526 ± 0.0083
1 µM, coculture fibroblast: C12385	0.8701 ± 0.0082	0.7967 ± 0.0025	0.786 ± 0.011	0.7319 ± 0.0018	0.695 ± 0.0088	0.676 ± 0.011	0.645 ± 0.021	0.621 ± 0.029	0.618 ± 0.025
1 µM, coculture fibroblast: H6013	0.873 ± 0.014	0.8638 ± 0.0029	0.8195 ± 0.0047	0.795 ± 0.027	0.778 ± 0.024	0.79 ± 0.028	0.761 ± 0.034	0.757 ± 0.034	0.7 ± 0.037
1 µM, coculture fibroblast: H6019	0.811 ± 0.015	0.783 ± 0.052	0.759 ± 0.055	0.704 ± 0.068	0.666 ± 0.064	0.646 ± 0.075	0.601 ± 0.075	0.565 ± 0.078	0.538 ± 0.082
1 µM, coculture fibroblast: H6076	0.936 ± 0.017	0.871 ± 0.037	0.832 ± 0.034	0.835 ± 0.033	0.769 ± 0.023	0.763 ± 0.027	0.717 ± 0.035	0.713 ± 0.03	0.749 ± 0.031
1 µM, coculture fibroblast: H6231	0.8383 ± 0.0074	0.9177 ± 0.0048	0.8201 ± 0.0014	0.8073 ± 0.0078	0.754 ± 0.0094	0.728 ± 0.019	0.672 ± 0.023	0.656 ± 0.025	0.634 ± 0.032
1 µM, coculture fibroblast: HADF	0.9151 ± 0.0077	0.8387 ± 0.0082	0.7995 ± 0.0053	0.79 ± 0.017	0.755 ± 0.026	0.756 ± 0.018	0.71 ± 0.009	0.709 ± 0.017	0.666 ± 0.017
1 µM, coculture fibroblast: HCFa	0.846 ± 0.0077	0.857 ± 0.04	0.822 ± 0.07	0.812 ± 0.09	0.764 ± 0.092	0.758 ± 0.091	0.721 ± 0.089	0.687 ± 0.087	0.632 ± 0.094
1 µM, coculture fibroblast: HCPF	0.881 ± 0.018	0.9035 ± 0.009	0.841 ± 0.025	0.831 ± 0.032	0.758 ± 0.021	0.734 ± 0.018	0.68 ± 0.021	0.665 ± 0.018	0.651 ± 0.032
1 µM, coculture fibroblast: HHSteC	0.9308 ± 0.0075	0.856 ± 0.029	0.803 ± 0.032	0.78 ± 0.056	0.732 ± 0.063	0.726 ± 0.078	0.658 ± 0.058	0.626 ± 0.07	0.571 ± 0.065
1 µM, coculture fibroblast: HMF	0.8561 ± 0.0082	0.911 ± 0.037	0.863 ± 0.037	0.849 ± 0.041	0.786 ± 0.066	0.772 ± 0.066	0.726 ± 0.063	0.695 ± 0.059	0.681 ± 0.049
1 µM, coculture fibroblast: HPFa	0.932 ± 0.011	0.893 ± 0.021	0.845 ± 0.011	0.7928 ± 0.007	0.7571 ± 0.0061	0.748 ± 0.0086	0.685 ± 0.013	0.646 ± 0.02	0.571 ± 0.019
1 µM, coculture fibroblast: HUF	0.921 ± 0.014	0.839 ± 0.019	0.786 ± 0.029	0.722 ± 0.044	0.672 ± 0.044	0.652 ± 0.06	0.607 ± 0.064	0.588 ± 0.069	0.566 ± 0.069
1 µM, coculture fibroblast: Hs5	0.932 ± 0.049	0.865 ± 0.0091	0.831 ± 0.029	0.809 ± 0.0086	0.739 ± 0.018	0.713 ± 0.017	0.669 ± 0.0082	0.641 ± 0.012	0.6689 ± 0.0042
1 µM, coculture fibroblast: Hs27A	0.862 ± 0.018	0.801 ± 0.012	0.759 ± 0.008	0.7498 ± 0.0047	0.6952 ± 0.003	0.6852 ± 0.004	0.6315 ± 0.0049	0.6061 ± 0.0027	0.5515 ± 0.001
1 µM, coculture fibroblast: Hs343T	0.87274 ± 0.0002	0.898 ± 0.013	0.818 ± 0.022	0.79 ± 0.023	0.716 ± 0.036	0.691 ± 0.042	0.658 ± 0.038	0.642 ± 0.032	0.627 ± 0.029
1 µM, coculture fibroblast: WS1	0.858 ± 0.029	0.77 ± 0.045	0.735 ± 0.073	0.665 ± 0.085	0.619 ± 0.088	0.587 ± 0.092	0.559 ± 0.086	0.522 ± 0.091	0.513 ± 0.093

Source: the supplement of paper PMC6078165
